target: IN-GCN2 interaction (6xHis-IN / GST-GCN2) (UniProt P04585+Q9P2K8); assay type: binding, HIV-1 IN; human GCN2; settings: screen, single dose 100 µM, single replicate; residual AlphaLISA signal normalized to DMSO control

Sequences of proteins named here, by UniProt entry; tags and fusion partners are left off. Residues count along the entry.
UniProt Q9P2K8, 192-1024: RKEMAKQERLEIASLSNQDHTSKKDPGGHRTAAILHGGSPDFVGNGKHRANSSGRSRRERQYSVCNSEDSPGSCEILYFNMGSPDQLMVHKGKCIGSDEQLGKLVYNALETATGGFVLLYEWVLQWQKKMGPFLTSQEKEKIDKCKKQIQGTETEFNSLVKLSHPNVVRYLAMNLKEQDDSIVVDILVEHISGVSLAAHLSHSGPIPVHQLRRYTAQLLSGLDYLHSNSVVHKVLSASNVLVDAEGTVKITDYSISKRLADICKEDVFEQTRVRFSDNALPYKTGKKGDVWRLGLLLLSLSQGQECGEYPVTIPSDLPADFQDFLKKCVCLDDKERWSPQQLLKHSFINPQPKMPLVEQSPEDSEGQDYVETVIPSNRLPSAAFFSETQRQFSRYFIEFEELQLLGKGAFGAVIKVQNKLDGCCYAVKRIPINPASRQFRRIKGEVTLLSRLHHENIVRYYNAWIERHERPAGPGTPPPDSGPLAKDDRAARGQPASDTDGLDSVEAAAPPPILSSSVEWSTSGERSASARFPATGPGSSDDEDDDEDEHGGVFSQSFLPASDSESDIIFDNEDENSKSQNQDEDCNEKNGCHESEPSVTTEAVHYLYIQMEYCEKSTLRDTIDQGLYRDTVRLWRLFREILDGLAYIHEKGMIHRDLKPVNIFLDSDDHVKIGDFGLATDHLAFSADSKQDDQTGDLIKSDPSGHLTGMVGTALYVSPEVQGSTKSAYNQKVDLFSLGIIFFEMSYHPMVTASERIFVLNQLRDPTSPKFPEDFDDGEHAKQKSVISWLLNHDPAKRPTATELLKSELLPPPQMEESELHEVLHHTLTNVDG

Question: With COc1cc2c(c(OC)c1OC)-c1ccc(SC)c(=O)cc1[C@@H](N)CC2 [NSC9170] as the molecule, how does the “IN-GCN2 interaction (%)” value read?
Answer: Its value is 39.60%.

Question: How did the “IN-GCN2 interaction (%)” value turn out when COc1cc2c(c(OC)c1OC)-c1ccc(OC)c(=O)cc1[C@@H](N)CC2.O=C(O)C(O)C(O)C(=O)O [NSC36354] was run?
Answer: The value was 86.27%.

Question: How did the “IN-GCN2 interaction (%)” value turn out when COc1c(O)cc2c(c1OC)-c1ccc(OC)c(=O)cc1[C@@H](NC(C)=O)CC2 [NSC172946] was run?
Answer: Its value is 105.30%.

Question: How did the “IN-GCN2 interaction (%)” value turn out when CCOC(=O)NC1CCc2cc(OC)c(OC)c(OC)c2-c2ccc(OC)c(=O)cc21 (stereo not shown) [NSC355637] was run?
Answer: The value was 100.90%.
